# Primary screen of a compound library

Chains of the proteins cited; added tags and fusions are not shown. Residues count along the entry.
UniProt I6X8D2, whole entry: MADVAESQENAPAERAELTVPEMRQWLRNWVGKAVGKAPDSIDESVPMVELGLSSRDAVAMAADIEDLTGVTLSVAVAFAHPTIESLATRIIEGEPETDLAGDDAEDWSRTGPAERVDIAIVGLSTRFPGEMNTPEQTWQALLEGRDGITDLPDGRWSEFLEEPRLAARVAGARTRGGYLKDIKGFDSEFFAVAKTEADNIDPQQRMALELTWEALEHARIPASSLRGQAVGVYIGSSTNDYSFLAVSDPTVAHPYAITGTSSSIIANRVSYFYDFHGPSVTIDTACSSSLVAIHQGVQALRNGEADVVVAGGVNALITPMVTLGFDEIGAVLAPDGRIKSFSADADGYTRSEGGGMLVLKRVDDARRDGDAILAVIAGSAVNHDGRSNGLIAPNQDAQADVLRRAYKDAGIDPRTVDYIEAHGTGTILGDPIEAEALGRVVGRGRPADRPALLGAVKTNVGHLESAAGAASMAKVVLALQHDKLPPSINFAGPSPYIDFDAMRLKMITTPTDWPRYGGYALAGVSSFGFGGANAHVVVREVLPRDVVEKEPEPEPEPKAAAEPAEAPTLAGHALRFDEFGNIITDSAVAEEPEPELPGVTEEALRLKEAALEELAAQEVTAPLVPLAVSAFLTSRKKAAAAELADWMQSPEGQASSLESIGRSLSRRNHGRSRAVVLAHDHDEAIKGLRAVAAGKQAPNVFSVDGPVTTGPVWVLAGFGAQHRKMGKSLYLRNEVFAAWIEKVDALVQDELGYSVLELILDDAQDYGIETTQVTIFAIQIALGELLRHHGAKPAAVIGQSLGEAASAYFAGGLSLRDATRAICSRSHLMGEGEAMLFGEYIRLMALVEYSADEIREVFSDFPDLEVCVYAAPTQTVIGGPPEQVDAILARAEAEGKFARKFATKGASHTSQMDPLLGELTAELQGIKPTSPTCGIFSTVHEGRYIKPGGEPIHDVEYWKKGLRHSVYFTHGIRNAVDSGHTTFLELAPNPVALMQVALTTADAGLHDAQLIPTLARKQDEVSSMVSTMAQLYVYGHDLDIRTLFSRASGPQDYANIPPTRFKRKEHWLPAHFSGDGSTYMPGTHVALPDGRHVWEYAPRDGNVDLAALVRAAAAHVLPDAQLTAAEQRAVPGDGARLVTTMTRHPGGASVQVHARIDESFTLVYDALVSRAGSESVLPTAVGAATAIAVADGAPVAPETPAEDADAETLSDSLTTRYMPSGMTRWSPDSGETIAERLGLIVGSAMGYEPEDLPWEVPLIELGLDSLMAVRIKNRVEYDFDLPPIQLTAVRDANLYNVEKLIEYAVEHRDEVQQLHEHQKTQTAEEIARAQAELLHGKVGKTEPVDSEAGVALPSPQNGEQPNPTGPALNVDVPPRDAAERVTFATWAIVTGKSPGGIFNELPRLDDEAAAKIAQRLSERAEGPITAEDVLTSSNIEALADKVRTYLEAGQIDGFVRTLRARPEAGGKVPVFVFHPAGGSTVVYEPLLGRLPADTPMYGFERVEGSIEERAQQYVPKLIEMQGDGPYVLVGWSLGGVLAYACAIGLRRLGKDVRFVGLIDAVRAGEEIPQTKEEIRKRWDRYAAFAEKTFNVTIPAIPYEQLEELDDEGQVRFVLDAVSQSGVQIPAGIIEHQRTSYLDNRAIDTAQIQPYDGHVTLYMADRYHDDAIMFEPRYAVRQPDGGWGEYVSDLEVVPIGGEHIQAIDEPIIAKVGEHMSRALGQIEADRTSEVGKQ
UniProt P9WNZ1, whole entry: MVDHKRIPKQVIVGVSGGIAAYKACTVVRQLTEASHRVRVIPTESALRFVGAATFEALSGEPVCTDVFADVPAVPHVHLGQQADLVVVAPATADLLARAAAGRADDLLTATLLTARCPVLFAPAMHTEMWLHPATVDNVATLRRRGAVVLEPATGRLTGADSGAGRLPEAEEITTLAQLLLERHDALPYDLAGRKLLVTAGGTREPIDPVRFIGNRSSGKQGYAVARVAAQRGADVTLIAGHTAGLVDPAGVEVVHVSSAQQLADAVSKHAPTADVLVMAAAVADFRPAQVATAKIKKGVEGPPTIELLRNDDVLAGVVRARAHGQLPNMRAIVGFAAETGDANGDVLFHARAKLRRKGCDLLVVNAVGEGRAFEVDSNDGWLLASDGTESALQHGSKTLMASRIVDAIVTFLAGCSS
UniProt Q8IDJ8, 1-583: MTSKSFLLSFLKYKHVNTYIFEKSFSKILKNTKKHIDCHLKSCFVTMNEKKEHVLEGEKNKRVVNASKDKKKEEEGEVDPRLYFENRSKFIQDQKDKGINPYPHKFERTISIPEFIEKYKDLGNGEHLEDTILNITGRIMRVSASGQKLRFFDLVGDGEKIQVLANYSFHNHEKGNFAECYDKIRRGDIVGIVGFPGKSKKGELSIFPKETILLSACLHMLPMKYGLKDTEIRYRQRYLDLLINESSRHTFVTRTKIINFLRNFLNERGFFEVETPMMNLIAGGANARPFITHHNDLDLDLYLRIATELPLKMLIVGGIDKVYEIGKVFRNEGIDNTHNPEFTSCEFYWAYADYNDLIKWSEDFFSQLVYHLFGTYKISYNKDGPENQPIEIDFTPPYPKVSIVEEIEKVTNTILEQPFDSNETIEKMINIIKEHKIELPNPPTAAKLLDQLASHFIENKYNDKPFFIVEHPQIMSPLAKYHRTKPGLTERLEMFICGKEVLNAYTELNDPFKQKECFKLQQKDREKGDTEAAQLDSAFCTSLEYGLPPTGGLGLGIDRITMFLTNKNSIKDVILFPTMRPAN
UniProt Q4DA54, 1-478: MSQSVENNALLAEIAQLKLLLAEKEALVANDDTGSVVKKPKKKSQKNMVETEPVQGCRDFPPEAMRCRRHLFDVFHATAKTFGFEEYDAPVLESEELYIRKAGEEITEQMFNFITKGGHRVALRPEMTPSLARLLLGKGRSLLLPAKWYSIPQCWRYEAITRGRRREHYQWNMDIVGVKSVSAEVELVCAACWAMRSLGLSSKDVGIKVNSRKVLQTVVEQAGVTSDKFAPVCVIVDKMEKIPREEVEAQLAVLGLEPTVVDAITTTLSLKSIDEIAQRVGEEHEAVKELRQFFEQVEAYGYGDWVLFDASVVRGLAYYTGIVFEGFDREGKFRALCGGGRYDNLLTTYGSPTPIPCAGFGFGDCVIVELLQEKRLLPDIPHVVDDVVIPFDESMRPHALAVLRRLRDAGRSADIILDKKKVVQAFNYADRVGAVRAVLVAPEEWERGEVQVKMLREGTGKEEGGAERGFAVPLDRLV

Source: ChEMBL document CHEMBL3988442, “University of Dundee, Small-Polar-MMV Screening Library” (2021).

The filed quantity is “Percent Effect” (%). The controls that fix the scale are not given in the record; negative values are as filed. This is an unselected part of the compounds tested. A dash means the value is not listed here; it may have been measured.

Pks13 thioesterase: 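Enzyme assay of the thioesterase domain of polyketide synthase 13; the read-out is not stated. Target: Polyketide synthase Pks13, Mycobacterium tuberculosis (UniProt I6X8D2). Tested at 30 µM. The record gives no direction; the compounds picked for IC50 retests had high values, so higher reads as stronger inhibition. Of about 67,000 compounds tested this way, about 300 (0.46%) reached 50% or more in at least one test.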
CoaBC: 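Enzyme assay of CoaBC with a phosphate dye (Biomol Green) read at 650 nm. Target: Coenzyme A biosynthesis protein CoaBC, Mycobacterium tuberculosis (UniProt P9WNZ1). Concentration: 30 µM. Higher reads as stronger inhibition, judged from the few compounds that gave an IC50. Most strong results did not repeat in a second test. Of about 67,000 compounds tested this way, about 40 (0.06%) reached 50% or more in at least one test.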
PfKRS1: 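Lysine-tRNA ligase, Plasmodium falciparum 3D7 (UniProt Q8IDJ8). Enzyme assay of the cytosolic lysyl-tRNA synthetase in 384-well plates, read by luminescence. Concentration: 30 µM. Direction is inferred from only a few compounds that gave an IC50; most scored high, so higher reads as stronger inhibition. Of about 69,000 compounds tested this way, about 49 (0.071%) reached 50% or more in at least one test.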
TcHisRS: 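Histidine-tRNA ligase, Trypanosoma cruzi CL Brener (UniProt Q4DA54). Enzyme assay of histidyl-tRNA synthetase; the read-out is not stated. Tested at 30 µM. Direction is inferred from retests: higher values go with stronger inhibition. Size under these conditions: about 69,000 compounds, about 31 of them at 50% or above in at least one test.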

| # | structure | Pks13 thioesterase | CoaBC | PfKRS1 | TcHisRS |
|---|---|---|---|---|---|
| 1 | `NC(=O)CSCC(=O)NC1(c2cccc(Cl)c2)CC1` | -16.38% | 5.99% | 6.519% | 5.699% |
| 2 | `Cc1cc(C)n(CC2CCCN2C(=O)c2cccc(C#N)c2)n1` (configuration not stated) | -21.05% | 1.37% | -0.2943% | 4.373% |
| 3 | `CN(CCN1CCOC1=O)CC(=O)Nc1ccc(Cl)c(Cl)c1` | -11.97% | 1.263% | 0.3394% | 6.433% |
| 4 | `CC(=O)NCC(=O)N1CCCC(C(=O)c2ccc(C(C)(C)C)cc2)C1` (configuration not stated) | -2.334% | 5.409% | 3.782% | 1.786% |
| 5 | `CC(=O)N1CCC(c2ncc3c(n2)CCN(C(=O)c2ccccc2)C3)C1` (configuration not stated) | -11.46% | 1.703% | 0.2381% | 5.97% |
| 6 | `CCC(NC(=O)CNC(=O)OC)c1cc(F)ccc1F` (configuration not stated) | -43.29% | -1.141% | 7.559% | 7.328% |
| 7 | `COc1ccc(COCC(O)CNC(=O)Cc2ccc(C)cc2)cc1` (configuration not stated) | -6.069% | 8.524% | 2.738% | 2.254% |
| 8 | `O=C1CN([C@@H]2CC[C@@H](NS(=O)(=O)c3ccccc3)[C@H]2O)CCN1` | 0.2071% | 7.506% | 0.06285% | -3.955% |
| 9 | `CC(C(=O)N1CCCCC1)n1nc(-c2cccs2)cc(N)c1=O` (configuration not stated) | -15.91% | -13.35% | -1.843% | 1.916% |
| 10 | `CCOc1ccc(N(CCC#N)C(=O)c2ccnc(SC)c2)cc1` | 4.164% | -2.903% | 4.098% | 4.433% |
| 11 | `CC1CCCN(c2ccccc2OCC(=O)N2CCOCC2)C1` (configuration not stated) | 14.87% | 7.661% | -3.739% | 7.263% |
| 12 | `COc1ccccc1OC1CCN(c2ccncc2)CC1` | -31.32% | 11.41% | -2.241% | -20.62% |
| 13 | `CNc1cc(C2CN(Cc3scnc3C)CCO2)nc(C)n1` (configuration not stated) | 0.6283% | 7.046% | 2.127% | 3.042% |
| 14 | `CC(C(=O)NC1(C#N)CCCCC1)N1CCc2c(ncn2C2CC2)C1` (configuration not stated) | -11.1% | 1.35% | 1.178% | 3.704% |
| 15 | `CC(C)=CCC1(C(=O)O)CCCN(c2ccnc(N)n2)C1` (configuration not stated) | -9.018% | 4.232% | -4.521% | 3.247% |
| 16 | `COc1ccc(C)cc1CN(Cc1ncc(C)o1)C1CCN(C)C1` (configuration not stated) | -10.78% | -18.95% | 3.237% | -0.8403% |
| 17 | `COC(=O)CCSc1nncn1-c1ccc(OC)nc1` | - | 4.545% | 13.06% | 8.333% |
| 18 | `Cn1cnc(S(=O)(=O)N2CCSC3(CCCCC3)C2)c1` | -10.39% | 2.913% | 0.1367% | 8.287% |
| 19 | `NCC1Cc2cccc(-c3ccc(O)c(F)c3)c2O1` (configuration not stated) | 8.207% | 5.839% | -2.744% | 7.879% |
| 20 | `c1cncc(CN2CCC3(COCCN(C4CCOCC4)C3)C2)c1` (configuration not stated) | -11.25% | -9.664% | 4.49% | 9.091% |
| 21 | `COC(=O)NC1(C(=O)NCc2ccc(-c3ccn[nH]3)cc2)CCCC1` | -20.29% | 1.631% | 2.066% | 0.4878% |
| 22 | `Nc1cccnc1N1CCC(O)CC1` | 6.992% | 1.841% | 3.766% | 3.125% |
| 23 | `Cc1cc(=O)[nH]c(NCCNC(=O)c2ccccc2N2CCCC2)n1` | 2.668% | 0.3226% | 0.3681% | -5.419% |
| 24 | `Cc1noc([C@]23COC[C@H]2CN(S(=O)(=O)C2CC2)C3)n1` | -31.05% | 7.172% | 2.046% | 1.149% |
| 25 | `O=C(NCc1ccco1)c1cc[n+]([O-])cc1` | -7.666% | -7.096% | 0.4268% | 6.818% |
| 26 | `O=C(C1CCCCN1Cc1nccn1CC(F)(F)F)N1CCCC1` (configuration not stated) | 2.823% | 5.521% | 6.052% | 14.81% |
| 27 | `COC(=O)c1cnc2c(c(C)nn2C)c1OC` | -3.469% | 2.427% | 1.5% | 1.136% |
| 28 | `Cc1cc(C(=O)N2CCC(CCC(=O)NCCN(C)C)CC2)ccc1O` | -8.003% | -11.09% | -0.63% | 0% |
| 29 | `CC(Oc1cccc(Cl)c1)C(=O)Nc1cnn(CCN(C)C)c1` (configuration not stated) | -14.18% | 7.248% | -3.345% | 10.71% |
| 30 | `Cc1noc(-c2cnc(NCC3CCCO3)nc2-c2ccco2)c1C` (configuration not stated) | 20.81% | 1.675% | 2.719% | 7.28% |
| 31 | `O=C1CCNc2ccc(F)cc2CN1Cc1ccccc1` | -0.01997% | 0.7264% | 6.515% | 0% |
| 32 | `Cn1ccnc1CN1CCC(F)(F)C2(CCN(c3cnccn3)C2)C1` (configuration not stated) | -34.57% | 4.348% | -0.9223% | -1% |
| 33 | `CNC(=O)C1(C)CN(c2nnc(C)c3ccccc23)CCO1` (configuration not stated) | 11.71% | -3.398% | 1.044% | 5.747% |
| 34 | `O=c1oc(-c2ccc(F)cc2)nn1CN1CCN(C2CCCC2)CC1` | -20.62% | 0.4819% | 5.298% | 7.634% |

Once more, the final 4:

Result for O=C1CCNc2ccc(F)cc2CN1Cc1ccccc1 was Pks13 thioesterase: -0.01997%; CoaBC: 0.7264%; PfKRS1: 6.515%; TcHisRS: 0%.
Result for Cn1ccnc1CN1CCC(F)(F)C2(CCN(c3cnccn3)C2)C1 (configuration not stated) was Pks13 thioesterase: -34.57%; CoaBC: 4.348%; PfKRS1: -0.9223%; TcHisRS: -1%.
Result for CNC(=O)C1(C)CN(c2nnc(C)c3ccccc23)CCO1 (configuration not stated) was Pks13 thioesterase: 11.71%; CoaBC: -3.398%; PfKRS1: 1.044%; TcHisRS: 5.747%.
Result for O=c1oc(-c2ccc(F)cc2)nn1CN1CCN(C2CCCC2)CC1 was Pks13 thioesterase: -20.62%; CoaBC: 0.4819%; PfKRS1: 5.298%; TcHisRS: 7.634%.